# Experimental data taken from PubChem BioAssay AID624426 (Broad Institute, 2012).
# Several values for one entry are separate records, joined by “and”; a condition that tells them apart may be missing. Equal entries are not always repeated. This is one part of the list. Entries with a potency or affinity are not part of this list. The source made no clear call on entries shown without one.
# Assay: Cell-based reporter HTS for compounds lowering TRPM1 promoter activity in melanoma cells, concentration-response, primary stage (AID 624426)
# Details: SK-MEL-5 TRPM1-promoter luciferase, luminescence, 24 h; at 35 µM (top of the series)
compound,measurement,value
O=C1C=C(Nc2ccccc2)C(=O)c2ccccc21,"activity change, negative = inhibition",-110% and -79.8%
